In the assay the target is Rluc8-tagged human neurotensin receptor 1 (NTSR1) (human) (UniProt P30989). Kind of assay: FRET or BRET; BRET1 in live HEK293T cells: Rluc8-tagged NTSR1 (donor) and Venus-tagged β-arrestin1 or 2 (acceptor); cells treated with NT, PD149163 or SBI-553 (also SR142948A; NT after SBI-553 or SR142948A pretreatment); HBSS with 20 mM HEPES, read at 35°C. Background: Bioluminescence resonance energy transfer reports proximity on the nanometre scale.

The chains behind the UniProt entries cited, without tags or fusion partners.
UniProt P49407: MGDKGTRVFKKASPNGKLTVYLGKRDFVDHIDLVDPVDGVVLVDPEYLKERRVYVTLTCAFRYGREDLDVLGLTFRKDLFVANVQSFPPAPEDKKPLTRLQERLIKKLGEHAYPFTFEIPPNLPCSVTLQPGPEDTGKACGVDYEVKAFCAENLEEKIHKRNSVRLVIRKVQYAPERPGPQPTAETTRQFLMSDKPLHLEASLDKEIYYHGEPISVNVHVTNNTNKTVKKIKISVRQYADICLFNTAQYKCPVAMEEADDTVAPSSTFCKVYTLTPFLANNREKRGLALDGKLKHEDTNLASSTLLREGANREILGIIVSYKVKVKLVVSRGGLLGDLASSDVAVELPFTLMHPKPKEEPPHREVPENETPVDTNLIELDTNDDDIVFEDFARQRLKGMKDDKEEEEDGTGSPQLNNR

These are yes or no findings as the source states them, for the method shown. Binding seen in cells or lysates may run through a third protein. Some binding calls cover weakened binding; strength is not graded here.

As to “human mVenus-β-arrestin1 (from UniProt P49407 1-418)”, the binding entry is “binds”. The value for “human mVenus-β-arrestin2 (from UniProt P32121 1-409)” was “binds”.

The values are drawn from publication PMC11661308.
